From PMC8754129 come the findings set out here.

Protein sequences, listed by entry. Tags and fused reporters are not part of them. Lines headed by an entry give the natural chain unless they say otherwise; changes in a name come on top. Residues count along the entry.
UniProt F5HCV3: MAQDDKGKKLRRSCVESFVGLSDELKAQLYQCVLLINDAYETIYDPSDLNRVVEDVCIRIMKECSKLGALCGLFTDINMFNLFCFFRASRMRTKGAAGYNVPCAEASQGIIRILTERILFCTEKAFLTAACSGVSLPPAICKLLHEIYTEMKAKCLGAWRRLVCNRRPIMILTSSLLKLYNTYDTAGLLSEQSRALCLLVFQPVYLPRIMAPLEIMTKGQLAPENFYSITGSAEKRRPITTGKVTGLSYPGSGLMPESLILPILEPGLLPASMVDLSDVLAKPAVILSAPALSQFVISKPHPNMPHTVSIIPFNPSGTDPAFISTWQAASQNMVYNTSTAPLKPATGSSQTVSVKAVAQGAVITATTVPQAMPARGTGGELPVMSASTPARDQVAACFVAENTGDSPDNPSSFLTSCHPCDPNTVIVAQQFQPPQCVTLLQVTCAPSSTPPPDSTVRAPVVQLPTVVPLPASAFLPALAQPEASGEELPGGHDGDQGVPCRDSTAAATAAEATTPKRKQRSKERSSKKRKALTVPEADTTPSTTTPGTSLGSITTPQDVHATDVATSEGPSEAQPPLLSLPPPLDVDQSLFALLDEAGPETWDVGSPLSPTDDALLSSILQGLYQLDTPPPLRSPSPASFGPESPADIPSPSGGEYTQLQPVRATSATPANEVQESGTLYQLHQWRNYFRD
GFP-ORF50(1–590) (Kaposi's sarcoma-associated herpesvirus (KSHV)): residues 1-590 of F5HCV3
GFP-ORF50(1–490) (Kaposi's sarcoma-associated herpesvirus (KSHV)): residues 1-490 of F5HCV3
F-Sp3(533–781) (Q02447, residues 533-781): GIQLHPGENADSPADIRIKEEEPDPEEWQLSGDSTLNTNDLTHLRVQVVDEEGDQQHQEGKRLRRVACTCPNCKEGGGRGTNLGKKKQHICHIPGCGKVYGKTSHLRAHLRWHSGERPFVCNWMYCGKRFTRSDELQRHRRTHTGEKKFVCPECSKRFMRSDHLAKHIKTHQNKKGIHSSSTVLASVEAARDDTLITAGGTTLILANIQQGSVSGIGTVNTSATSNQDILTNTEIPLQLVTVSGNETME

No constants are given. Whether binding was seen depends on the method and setting. For some of these results: Binding seen in cells or lysates may run through a third protein. Some results given as binding are weak or reduced against the parent protein; the word gives no strength.

Experiment [1] has as its target GFP-ORF50(1–490) (Kaposi's sarcoma-associated herpesvirus (KSHV)) (UniProt F5HCV3). Briefly: native gel or EMSA. In general terms: Mobility shift assays separate free from complexed probe on a gel.
Experiment [2] has the same target. Briefly: co-IP.
In experiment [3] the target is GFP-ORF50(1–590) (Kaposi's sarcoma-associated herpesvirus (KSHV)) (UniProt F5HCV3). Briefly: co-IP.

With F-Sp3 (from UniProt Q02447-1 1-781), in experiment [1], the binding result is “binds”.
As for “F-Sp3(533–781) (from UniProt Q02447-1 533-781) (domain or fragment)”, the binding entry in experiment [2], in experiment [3] and in experiment [1] was “binds” each time.
